Data as given in PubChem BioAssay AID1259308 (NCATS, 2017).
Assay: 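Genes whose loss raises luciferase production in HEK293 cells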 (primary screen). Cells: human HEK293 embryonic kidney cells stably expressing firefly luciferase (HEK-CMV-Luc2-Hygro). Knock-down reagent: single siRNA against human genes, 0.8 pmol siRNA per well. Timing: 72 h. Detection: 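Luciferase light (ONE-Glo) measured on one replicate plate set and viability (CellTiter-Glo) on the other, scaled to a negative control siRNA, with robust z-scores and luciferase per cell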. Reading the numbers: total luciferase, z-score and total luciferase, % of control: higher = more reporter protein produced; luciferase per cell, z-score: higher = more reporter output per viable cell; viable cells, % of control: higher = more viable cells. Hit rule: 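Active when the median/MAD z-score for overall luciferase is greater than 3; a gene was taken forward for validation with new siRNAs if at least two of its three siRNAs passed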. Meaning of the calls: active = raised luciferase; inactive = no rise.
Here is a random part of about 59,000 reagents. About 1,510 of all reagents (2.6%) were called active. 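Calls use total luciferase alone and ignore viability, so some active siRNAs may act by altering cell number.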 Entries without a mark were called inactive. Reagents against one gene are numbered here.

gene,reagent,"total luciferase, z-score","total luciferase, % of control","luciferase per cell, z-score","viable cells, % of control"
COL5A1,1,0.7,95.8,0.818,86.3
COL5A1,2,0.296,87.8,0.412,88
COL5A1,3,0.728,96.4,1.15,79.5
OGFRP1,1,1.76,117,0.938,102
OGFRP1,2,-0.0864,80.2,-0.574,104
OGFRP1,3,-0.725,67.5,-0.223,79.9
WDR3,1,2.11,124,1.09,104
WDR3,2,-1.57,50.7,-1.82,91.6
WDR3,3,-0.063,80.6,-0.317,98
LYAR,1,-1.33,55.5,-0.488,70.6
LYAR,2,0.916,100,0.811,90.4
LYAR,3,-0.67,68.6,-0.241,81.6
GARS1,1,0.728,96.4,0.737,88.7
GARS1,2,2.07,123,1.26,98.8
GARS1,3,-2.14,39.3,-1.72,69.2
DDA1,1,-1.24,57.2,-1.9,105
DDA1,2,-0.209,77.7,-0.508,99.3
DDA1,3,-0.6,69.9,-0.731,94.7
SERPINA4,1,-0.379,74.3,-0.487,94.4
SERPINA4,2,-0.528,71.4,-1.29,112
SERPINA4,3,1.52,112,-0.0681,128
IL34,1,0.416,90.2,1.02,77.1
IL34,2,-2.51,32,-2.95,77.7
IL34,3,-0.506,71.8,-0.96,103
LEMD1-DT,1,-0.904,63.9,-0.222,75.7
LEMD1-DT,2,2.73,136,2.08,88.1
LEMD1-DT,3,0.256,87,-0.106,99.9
CLCN1,1,-0.987,62.3,-0.932,88.9
CLCN1,2,-0.0775,80.3,-0.736,109
CLCN1,3,0.162,85.1,-0.402,106
SPMAP1,1,0.749,96.8,0.83,86.9
SPMAP1,2,-0.594,70.1,0.316,72.1
SPMAP1,3,1.48,111,0.571,107
SDHAF2,1,0.127,84.4,-0.209,99.7
SDHAF2,2,1.12,104,1.77,73
SDHAF2,3,1.2,106,1.05,89.6
DVL3,1,0.791,97.6,0.329,100
DVL3,2,-0.289,76.1,-0.582,99.2
DVL3,3,-2.07,40.7,-1.64,70.1
TNP1,1,1.17,105,1.27,84.1
TNP1,2,-0.768,66.6,-0.575,86.6
TNP1,3,0.803,97.9,0.688,91.2
STMN3,1,0.148,84.8,-0.105,97.5
STMN3,2,3.12 (active),144,2.19,90.3
STMN3,3,2.36,129,1.69,92.3
MRPL35,1,-0.414,73.7,-0.282,88.7
MRPL35,2,-0.604,69.9,-0.305,84.6
MRPL35,3,-2.77,26.9,-1.84,48.8
SPTSSB,1,-1.13,59.5,-0.922,84.7
SPTSSB,2,-0.543,71.1,0.71,65.9
SPTSSB,3,-0.132,79.3,-0.728,107
CENPM,1,-0.0713,80.5,0.112,87.3
CENPM,2,-0.831,65.4,-0.608,85.7
CENPM,3,-0.145,79,-0.356,97
SMYD3,1,-2.04,41.4,0.0283,45.9
SMYD3,2,-0.129,79.3,-0.572,103
SMYD3,3,-0.0428,81,-0.384,100

Entries listed so far whose gene name starts with O or o:
gene,reagent,"total luciferase, z-score","total luciferase, % of control","luciferase per cell, z-score","viable cells, % of control"
OGFRP1,1,1.76,117,0.938,102
OGFRP1,2,-0.0864,80.2,-0.574,104
OGFRP1,3,-0.725,67.5,-0.223,79.9
